Results taken from PubChem BioAssay AID493014 (National Center for Advancing Translational Sciences (NCATS), 2011).
Some of the results follow. The main result of the screen is listed elsewhere. These columns were measured beside it and carry no call. Most of these compounds were active or inconclusive in the main read-out, so they are no random draw. Potencies come from curve fits of mixed quality, noted in brackets.

Test: qHTS Assay to Find Inhibitors of Chronic Active B-Cell Receptor Signaling
Details: ABC-DLBCL IkBa-CBG/CBR reporter, luminescence ratio (green luciferase fused to IkBa over red control in TMD8 lymphoma cells), 4 h
In short: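 Cell line TMD8 (human ABC DLBCL), stably expressing tet-inducible CBG68-IkBa fusion and CBR; IMDM/0.5% FBS; cpd up to 46 uM; dox induction, 4 h, 37C/5% CO2; dual luminescence; green/red ratio; MG132 control.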

[1] = measured here: CBR red luminescence, cell number
[2] = measured here: IkBa-CBG green luminescence

SMILES	AC50 [1]	AC50 [2]
O=C(Nc1ccc(-c2cnco2)cc1)c1ccccc1	2 µM [falling, full curve, poor fit]	
C=CCN1CC(C(=O)N2CCC(Cc3ccc(Cl)cc3)(C(=O)OCC)CC2)CC1=O (centres undefined)	3.55 µM [rising, partial curve, poor fit]	
COc1ccc(N(C(=O)c2ccc(Cl)cc2)C2=CC3CCC(C2)N3C)cc1 (centres undefined)	3.26 µM [falling, single point]	
O=C(O)CCCCCNC(=O)c1ccccc1	23.1 µM [falling, single point]	23.1 µM [rising, partial curve, poor fit]
O=C(NCc1ccc(F)cc1)c1cc(-c2ccncc2)nc2ccccc12	1.58 µM [rising, partial curve, poor fit]	
O=C(Nc1ccc2nc(-c3ccco3)[nH]c2c1)c1ccco1	2.91 µM [falling, partial curve, poor fit]	
COc1cc(CCC(=O)Nc2cnc3ccccc3c2)cc(OC)c1OC	35.5 µM [falling, single point]	
N#Cc1cccnc1Nc1cccc(Cl)c1	20.6 µM [rising, single point]	
COc1ccc(OC)c(N=CC2=C(O)CC(C)(C)CC2=O)c1	18.4 µM [rising, partial curve, poor fit]	16.4 µM [falling, partial curve, poor fit]
Clc1ccc(OCc2cn3cccnc3n2)c2ncccc12	4.11 µM [rising, partial curve, poor fit]	
CN1CCN(/N=C/c2c3ccccc3c(Cl)c3ccccc23)CC1		22.4 µM [falling, partial curve, poor fit]
C/C(O)=C\c1nc2ccccc2oc1=O	3.16 µM [falling, full curve]	
O=C1NCCCC1C(=O)N/N=C/c1cccc(Cl)c1 (centres undefined)	35.5 µM [falling, single point]	
CC1(C)CC(=O)c2sc(NC(=O)C(C)(C)C)nc2C1	12.6 µM [falling, partial curve, poor fit]	
C/C(CC(=O)Nc1ccc(F)cc1F)=N\NC(=O)C(=O)N1CCCCC1	3.16 µM [falling, partial curve, poor fit]	
COc1ccc(Cc2c(Cl)ncnc2Cl)cc1	14.6 µM [falling, single point]	
CCc1c(C)sc(NC(=O)c2ccco2)c1C#N	3.55 µM [rising, full curve]	
O=C(NCC1CCCO1)c1cccc(NC(=O)c2ccccc2)c1 (centres undefined)	11.2 µM [falling, partial curve]	
COCc1nnc(NC(=O)c2ccc(OC)cc2OC)s1	35.5 µM [falling, single point]	
CC/C(Cc1ccccc1)=N/NC(=O)c1cccc(Br)c1	11.6 µM [falling, partial curve, poor fit]	
O=C(c1ccccn1)c1ccc2ccccc2n1	11.2 µM [rising, single point]	
Cc1csc2nc(O)c(C(=O)NC3CCCCC3)c(=O)n12	23.1 µM [falling, single point]	

SMILES	AC50 [1]	AC50 [2]
COc1cccc(C(=O)NNC(=O)c2ccccc2)c1	10 µM [falling, partial curve]	
COc1cc(C2OC(=O)c3ccccc3S2)cc(OC)c1OC (centres undefined)	35.5 µM [rising, single point]	
CC(=O)N1CCN(C(=O)CCNS(=O)(=O)c2ccc(Br)cc2)CC1	4.61 µM [rising, partial curve, poor fit]	
COc1cc2c(cc1OC)CN(C(=O)C1CCC(=O)N(CCCN3CCOCC3)C1)CC2 (centres undefined)	6.31 µM [falling, full curve, poor fit]	
CC(C)Cc1nnc(NC(=O)C2=COCCO2)s1	29.1 µM [falling, single point]	
COc1ccc(-c2csc(NC(=O)c3cccc(S(=O)(=O)N4CCN(C)CC4)c3)n2)cc1	7.94 µM [falling, partial curve]	
COc1ccc(Cl)cc1NC(=O)c1cc(-c2cc(C)ccc2O)n[nH]1	15.8 µM [falling, partial curve, poor fit]	
c1ccc(CCNc2ncnc3scc(C4COc5ccccc5O4)c23)cc1 (centres undefined)	20.6 µM [falling, single point]	
COc1cccc(CC(=O)Nc2ccc(-c3nc4ccccc4s3)cc2Cl)c1	2.82 µM [rising, full curve]	
CCOc1ccc(C(=O)c2ccncc2)cc1	18.4 µM [rising, single point]	
O=C(O)COc1ccccc1/C=N/NC(=O)CSc1nc2ccccc2s1	6.31 µM [rising, single point]	
Nc1ncnc2c1ncn2[C@@H]1O[C@H](CNC(=O)[C@H](N)Cc2cscn2)[C@@H](O)[C@H]1O	18.4 µM [rising, partial curve, poor fit]	
CCN(CC)CCCNC(=O)CCC(=O)NNc1nc2ccccc2c2nc(C)nn12	15.8 µM [falling, single point]	35.5 µM [falling, single point]
O=C(N/N=C/C=C/c1ccco1)c1ccccc1Cl	3.55 µM [falling, full curve, poor fit]	
O=C(NC(=S)Nc1nc2c(s1)CSc1ccccc1-2)c1ccccc1	16.4 µM [falling, single point]	32.6 µM [rising, partial curve, poor fit]
O=C1N=C2SCCN2/C1=C\c1ccc(Cl)cc1	0.103 µM [falling, full curve, poor fit]	
O=C(COc1ccc(Cl)cc1)Nc1nnc(S(=O)(=O)N2CCCCCC2)s1	2.82 µM [rising, full curve, poor fit]	
COc1cc(-c2ccc3sc(-c4ccsc4)c(C#CCO)c3c2)cc(OC)c1OC	32.6 µM [falling, single point]	
COc1ccc(C(C(=O)Nc2ccc(F)cc2)N(C(=O)Cn2nnc3ccccc32)C2CC2)cc1 (centres undefined)	11.2 µM [falling, single point]	
COc1ccccc1C(=O)Nc1ccc(OCc2nnc3c4ccccc4c(C)nn23)cc1	2.91 µM [rising, partial curve]	
COc1ccccc1CNC(=O)c1c(N)n(CCCN2CCOCC2)c2nc3ccccc3nc12	11.2 µM [falling, partial curve]	
O=C(OCc1nc2ccccc2s1)c1ccco1	5.01 µM [rising, partial curve]	

SMILES	AC50 [1]	AC50 [2]
CC(C)Oc1ccc(C2CC(=O)N(c3cccc(C(=O)O)c3)C2=O)cc1 (centres undefined)	35.5 µM [rising, single point]	
C/C(CC(=O)Nc1ccc2c(c1)OCO2)=N\NC(=O)c1ccccc1N	11.2 µM [falling, partial curve]	
FC(F)Sc1ccc(NC(=S)NC(c2ccccc2)c2ccccc2)cc1	25.1 µM [falling, single point]	17.8 µM [rising, single point]
CC(O)[C@H]1CNCCN1CCc1cccc2ccccc12 (some centres undefined)	23.1 µM [falling, partial curve, poor fit]	
COc1ccccc1Nc1nc(N)nc(CCl)n1	28.2 µM [falling, partial curve, poor fit]	
CCN(CC)S(=O)(=O)c1ccc2c(c1)[nH]c(=S)n2CC	0.794 µM [falling, partial curve, poor fit]	
CC1(C)CC(=O)C2=C(C1)NC(=O)CC2c1cc2c(cc1Br)OCO2 (centres undefined)	35.5 µM [rising, partial curve, poor fit]	
O=C(Cc1cccs1)Nc1nc(-c2ccccc2)cs1	29.1 µM [falling, single point]	
O=c1ccc2cc3c([nH]c4ccc(Br)cc43)oc-2c1O	3.66 µM [falling, partial curve]	
COc1ccc(-c2c(C)nn3c(N4CCCCCC4)cc(C)nc23)cc1OC	35.5 µM [falling, single point]	
C=CCC(COCc1ccccc1)NS(=O)(=O)c1ccccc1Br (centres undefined)	22.4 µM [rising, single point]	
Cc1ccc(-c2nn(-c3ccccc3)cc2C(=O)NC2CCC(O)CC2)cc1 (centres undefined)	1.84 µM [rising, partial curve, poor fit]	
Cc1ccc(N2C(=O)C(Cl)=C(N3CCOCC3)C2=O)cc1Cl	8.2 µM [falling, partial curve, poor fit]	
Cc1cc(C(=O)COC(=O)Cn2c(C(F)(F)F)nc3ccccc32)c(C)n1Cc1ccco1	35.5 µM [rising, single point]	
Cc1ccc([C@@H]2CC=C(C(=O)O)[C@H](c3ccc(Br)cc3)N2S(=O)(=O)c2ccc(C)cc2)cc1	29.1 µM [falling, single point]	
CN(C)Cc1c(-c2ccc(Cl)cc2)nc2ccc(Cl)cn12	0.112 µM [rising, full curve, poor fit]	
CCOC(=O)c1ccccc1NC(=O)C(C)Oc1ccccc1 (centres undefined)	23.1 µM [rising, single point]	
Cc1cc(C(=O)OCC(=O)Nc2cc(C)on2)c2ccccc2n1	29.1 µM [falling, single point]	
O=C1C/C(=C/NCc2ccccc2)C(=O)N1	29.1 µM [falling, single point]	
CCOc1ccc(NCc2cccn2-c2nnc(N3CCC(C(=O)NCCCN4CC(C)CC(C)C4)CC3)s2)cc1 (centres undefined)	17.8 µM [falling, single point]	

Molecules above that contain a cyano group (2):
SMILES	AC50 [1]	AC50 [2]
N#Cc1cccnc1Nc1cccc(Cl)c1	20.6 µM [rising, single point]	
CCc1c(C)sc(NC(=O)c2ccco2)c1C#N	3.55 µM [rising, full curve]	
